Assays:
[1] = Radiation dosimetry calculation (OLINDA), 25-g mouse
Method: 1.18 Radiation Dosimetry Calculation
(§1) Internal dosimetry estimates were calculated using the organ level internal dose assessment (OLINDA) software v.2.0.^37 These estimates were performed for the mouse using the 25 g MOBY phantom,^38 for humans using the NURBS model for the adult male,^39 and for the tumors using the previously reported unit density sphere model.^40 All the phantoms and the sphere model are available in OLINDA and require the input of the total number of decays normalized by injected activity in units of MBq×h/MBq for each of the source organ/tumor.
The biodistribution data (available in the Tables 1 and 2, below) was used to determine the kinetics input values required by OLINDA. First, each of the values was decayed to its corresponding time point (the values on the table are shown at injection time). Then the different time-points of the uptake data (% ID/g) for each organ were fitted to both mono-exponential
functions using in-house software developed in Python. The best fit was selected based on maximizing the coefficient of determination (R2) of the fit and minimizing the residuals. The areas under the curves were analytically calculated based on the parameters obtained from the best fit of each organ and this provided the kinetic input values required by OLINDA.
In the mouse case, the adrenals, blood, fat, muscle, and seminal vesicles are not modeled in the phantom. These organs were grouped together and included in what OLINDA calls the remainder of the body.

[2] = Radiation dosimetry calculation (OLINDA), extrapolated to humans (male); settings: human
Method: as §1
Extrapolation of the mice biodistribution data to humans was performed using the method proposed by Kirschner et al.^41 and shown in the following equation: […]
Where morgan is the mass of the organ and M represents the total body mass. The subscripts indicate whether the values correspond to human or mouse. Masses for the organs and total body weight were taken from the simulated masses of the phantoms in OLINDA. […] The % ID/g of the blood was assumed to be the one for the heart contents of the phantom. This value was also used to calculate the bone marrow uptake based on the method described by Wessels et al.^42 in which we assumed a hematocrit fraction of 0.40 based on the patient values shown on that study. At the end, red marrow values used the blood measurements scaled by a factor of 0.32. In the human case, the fat, muscle, and seminal vesicles that are present in the biodistribution data are not modelled in the phantom so the numbers of decays present in these regions were included in the remainder of the body. The data was again fitted as for the mouse case and the values for the total number of decays in units of MBq×h/MBq were inputted in OLINDA.

[3] = target organ Remainder of the body
[4] = target organ Urinary bladder wall

| Structure (SMILES) | Organ dose ([1]; target organ Brain) [mGy/MBq] | Organ dose ([1]; target organ Heart) [mGy/MBq] | Organ dose ([1]; target organ Kidneys) [mGy/MBq] | Organ dose ([1]; target organ Large intestine) [mGy/MBq] | Organ dose ([1]; target organ Liver) [mGy/MBq] | Organ dose ([1]; target organ Lungs) [mGy/MBq] | Organ dose ([1]; target organ Pancreas) [mGy/MBq] | Organ dose [1, 3] [mGy/MBq] | Organ dose ([1]; target organ Skeleton) [mGy/MBq] | Organ dose ([1]; target organ Small intestine) [mGy/MBq] | Organ dose ([1]; target organ Spleen) [mGy/MBq] | Organ dose ([1]; target organ Stomach wall) [mGy/MBq] | Organ dose ([1]; target organ Testes) [mGy/MBq] | Organ dose ([1]; target organ Thyroid) [mGy/MBq] | Organ dose [1, 4] [mGy/MBq] | Organ dose ([2]; target organ Adrenals) [mGy/MBq] | Organ dose ([2]; target organ Brain) [mGy/MBq] | Organ dose ([2]; target organ Esophagus) [mGy/MBq] | Organ dose ([2]; target organ Eyes) [mGy/MBq] | Organ dose ([2]; target organ Gallbladder wall) [mGy/MBq] | also measured |
| --- | --- | --- | --- | --- | --- | --- | --- | --- | --- | --- | --- | --- | --- | --- | --- | --- | --- | --- | --- | --- | --- |
| O=C([O-])CN1CCN(CC(=O)[O-])CCN(CC(=O)NCCCC[C@H](NC(=O)[C@H](CCC(=O)O)NC(=O)CCCc2ccc(I)cc2)C(=O)NC[C@H]2CC[C@H](C(=O)N[C@@H](Cc3ccc4ccccc4c3)C(=O)NCCCC[C@H](NC(=O)N[C@@H](CCC(=O)O)C(=O)O)C(=O)O)CC2)CCN(CC(=O)[O-])CC1.[177Lu+3] [^177Lu-HTK01169] | 9.06E−01 | 1.79E+00 | 4.82E+01 | 2.66E+00 | 2.50E+00 | 2.32E+00 | 3.64E+00 | 2.21E+00 | 6.22E+01 | 2.35E+00 | 5.62E+00 | 2.41E+00 | 1.95E+00 | 1.25E+00 | 8.25E+00 | 1.21E−01 | 2.59E−03 | 1.70E−02 | 1.52E−02 | 1.88E−02 | Organ dose ([2]; target organ Heart wall): 5.04E−02 mGy/MBq; Organ dose ([2]; target organ Kidneys): 1.90E+00 mGy/MBq; Organ dose ([2]; target organ Left colon): 3.06E−02 mGy/MBq; Organ dose ([2]; target organ Liver): 2.87E−02 mGy/MBq; Organ dose ([2]; target organ Lungs): 4.51E−02 mGy/MBq; Organ dose ([2]; target organ Osteogenic Cells): 1.54E−02 mGy/MBq; Organ dose ([2]; target organ Pancreas): 1.69E−02 mGy/MBq; Organ dose ([2]; target organ Prostate): 1.70E−02 mGy/MBq; Organ dose ([2]; target organ Rectum): 2.21E−02 mGy/MBq; Organ dose ([2]; target organ Red marrow): 2.31E−02 mGy/MBq; Organ dose [2, 3]: 2.70E−02 mGy/MBq; Organ dose ([2]; target organ Right colon): 2.38E−02 mGy/MBq; Organ dose ([2]; target organ Salivary glands): 1.56E−02 mGy/MBq; Organ dose ([2]; target organ Small intestine): 2.85E−02 mGy/MBq; Organ dose ([2]; target organ Spleen): 1.24E−01 mGy/MBq; Organ dose ([2]; target organ Stomach Wall): 2.02E−02 mGy/MBq; Organ dose ([2]; target organ Testes): 3.17E−02 mGy/MBq; Organ dose ([2]; target organ Thymus): 1.64E−02 mGy/MBq; Organ dose ([2]; target organ Thyroid): 1.60E−02 mGy/MBq; Organ dose [2, 4]: 5.19E−02 mGy/MBq |
| O=C([O-])CN1CCN(CC(=O)[O-])CCN(CC(=O)NCC2CCC(C(=O)N[C@@H](Cc3ccc4ccccc4c3)C(=O)NCCCC[C@H](NC(=O)N[C@@H](CCC(=O)O)C(=O)O)C(=O)O)CC2)CCN(CC(=O)[O-])CC1.[177Lu+3] (some centres unmarked) [^177Lu-PSMA-617, reference compound] | 5.19E−02 | 7.72E−02 | 2.82E+00 | 2.10E−01 | 1.31E−01 | 1.07E−01 | 2.08E−01 | 1.77E−01 | 2.48E+00 | 1.69E−01 | 2.58E−01 | 1.81E−01 | 2.07E−01 | 5.94E−02 | 1.26E+01 | 7.64E−03 | 4.32E−04 | 7.60E−04 | 6.80E−04 | 8.76E−04 | Organ dose ([2]; target organ Heart wall): 1.00E−03 mGy/MBq; Organ dose ([2]; target organ Kidneys): 1.11E−01 mGy/MBq; Organ dose ([2]; target organ Left colon): 1.81E−03 mGy/MBq; Organ dose ([2]; target organ Liver): 1.37E−03 mGy/MBq; Organ dose ([2]; target organ Lungs): 1.81E−03 mGy/MBq; Organ dose ([2]; target organ Osteogenic Cells): 8.30E−04 mGy/MBq; Organ dose ([2]; target organ Pancreas): 7.60E−04 mGy/MBq; Organ dose ([2]; target organ Prostate): 1.17E−03 mGy/MBq; Organ dose ([2]; target organ Rectum): 1.45E−03 mGy/MBq; Organ dose ([2]; target organ Red marrow): 7.59E−04 mGy/MBq; Organ dose [2, 3]: 1.70E−03 mGy/MBq; Organ dose ([2]; target organ Right colon): 1.31E−03 mGy/MBq; Organ dose ([2]; target organ Salivary glands): 6.98E−04 mGy/MBq; Organ dose ([2]; target organ Small intestine): 1.72E−03 mGy/MBq; Organ dose ([2]; target organ Spleen): 4.42E−03 mGy/MBq; Organ dose ([2]; target organ Stomach Wall): 1.69E−03 mGy/MBq; Organ dose ([2]; target organ Testes): 1.05E−03 mGy/MBq; Organ dose ([2]; target organ Thymus): 7.19E−04 mGy/MBq; Organ dose ([2]; target organ Thyroid): 7.11E−04 mGy/MBq; Organ dose [2, 4]: 6.63E−02 mGy/MBq |
